This is one part of the list. Many values rest on one well or one pass, so single values are uncertain.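 The apoptosis fraction was the count of cleaved-PARP antibody-stained nuclei relative to all DNA-stained nuclei, imaged in 1,536-well plates. Screening doses were set so most cells survived, and baseline and induced cleaved-PARP levels vary greatly across cell lines.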
These compounds were tested on CBRC017 (line from a melanoma biopsy) (assay: cleaved PARP positive nuclei fraction relative to DMSO control; melanoma cells; higher = more apoptosis). Settings: library dose: low library concentration; 72 h.
With `CC(=O)c1c(C)c2cnc(Nc3ccc(N4CCNCC4)cn3)nc2n(C2CCCC2)c1=O` [palbociclib] + C[As](C)SC[C@H](NC(=O)CC[C@H](N)C(=O)O)C(=O)NCC(=O)O [Darinaparsin] (first compound 0.04 µM, partner dose 0.4 µM) the “cleaved PARP positive nuclei fraction” value was 121%. `NC1(c2ccc(-c3nc4ccn5c(=O)[nH]nc5c4cc3-c3ccccc3)cc2)CCC1` + N.N.[Cl][Pt][Cl] [cisplatin] (first compound 0.4 µM, partner dose 1.6 µM) was tested, and the “cleaved PARP positive nuclei fraction” value was 130%. `Cc1cc(Nc2cc(N3CCN(C)CC3)nc(Sc3ccc(NC(=O)C4CC4)cc3)n2)n[nH]1` [Tozasertib] + Cn1cc(C2=C(c3cn(C4CCN(Cc5ccccn5)CC4)c4ccccc34)C(=O)NC2=O)c2ccccc21 [Enzastaurin] (first compound 0.006 µM, partner dose 0.8 µM) was tested, and the “cleaved PARP positive nuclei fraction” value was 90.2%. `CC(C)C[C@H](NC(=O)[C@H](Cc1ccccc1)NC(=O)c1cnccn1)B(O)O` [Bortezomib] + N.N.[Cl][Pt][Cl] [cisplatin] (first compound 0.001 µM, partner dose 1.6 µM) was tested, and the “cleaved PARP positive nuclei fraction” value was 521%. `Nc1nc(F)nc2c1ncn2[C@@H]1O[C@H](CO)[C@@H](O)[C@@H]1O` [fludarabine] + C[As](C)SC[C@H](NC(=O)CC[C@H](N)C(=O)O)C(=O)NCC(=O)O [Darinaparsin] (first compound 0.2 µM, partner dose 0.4 µM) was tested, and the “cleaved PARP positive nuclei fraction” value was 73.3%. `Cn1cc(C2=C(c3cn(C4CCN(Cc5ccccn5)CC4)c4ccccc34)C(=O)NC2=O)c2ccccc21` [Enzastaurin] + CCN(CC)CCNC(=O)c1c(C)[nH]c(/C=C2\C(=O)Nc3ccc(F)cc32)c1C [sunitinib] (first compound 0.8 µM, partner dose 0.4 µM) was tested, and the “cleaved PARP positive nuclei fraction” value was 97.6%. For `C[C@]12O[C@H](C[C@]1(O)CO)n1c3ccccc3c3c4c(c5c6ccccc6n2c5c31)CNC4=O` [Lestaurtinib] + Nc1cccc2c1CN(C1CCC(=O)NC1=O)C2=O [lenalidomide] (first compound 0.004 µM, partner dose 1 µM), the “cleaved PARP positive nuclei fraction” value was 108%. For `N.N.[Cl][Pt][Cl]` [cisplatin] + Cn1nnc2c(C(N)=O)ncn2c1=O [temozolomide] (first compound 1.6 µM, partner dose 2 µM), the “cleaved PARP positive nuclei fraction” value was 134%. `Cn1cc(C2=C(c3cn(C4CCN(Cc5ccccn5)CC4)c4ccccc34)C(=O)NC2=O)c2ccccc21` [Enzastaurin] + CNC(=O)c1cc(Oc2ccc(NC(=O)Nc3ccc(Cl)c(C(F)(F)F)c3)cc2)ccn1 [sorafenib] (first compound 0.8 µM, partner dose 0.4 µM) was tested, and the “cleaved PARP positive nuclei fraction” value was 111%. With `Cc1cn(-c2cc(NC(=O)c3ccc(C)c(Nc4nccc(-c5cccnc5)n4)c3)cc(C(F)(F)F)c2)cn1` [nilotinib] + C[As](C)SC[C@H](NC(=O)CC[C@H](N)C(=O)O)C(=O)NCC(=O)O [Darinaparsin] (first compound 0.2 µM, partner dose 0.4 µM) the “cleaved PARP positive nuclei fraction” value was 119%. In the case of `Cc1ccc(Nc2nccc(N(C)c3ccc4c(C)n(C)nc4c3)n2)cc1S(N)(=O)=O` [Pazopanib] + Cn1cc(C2=C(c3cn(C4CCN(Cc5ccccn5)CC4)c4ccccc34)C(=O)NC2=O)c2ccccc21 [Enzastaurin] (first compound 0.4 µM, partner dose 0.8 µM), the “cleaved PARP positive nuclei fraction” value is reported as 113%. In the case of `C[C@]12O[C@H](C[C@]1(O)CO)n1c3ccccc3c3c4c(c5c6ccccc6n2c5c31)CNC4=O` [Lestaurtinib] + OCc1c[nH]c2ccccc12 [Indole-3-carbinol] (first compound 0.004 µM, partner dose 0.8 µM), the “cleaved PARP positive nuclei fraction” value is reported as 88.6%. With `Cn1cc(C2=C(c3cn(C4CCN(Cc5ccccn5)CC4)c4ccccc34)C(=O)NC2=O)c2ccccc21` [Enzastaurin] + C[C@]1(O)C[C@@H](c2nc(-c3ccc4ccc(-c5ccccc5)nc4c3)c3c(N)nccn32)C1 [OSI906] (first compound 0.8 µM, partner dose 0.4 µM) the “cleaved PARP positive nuclei fraction” value was 100%. For `O=C(/C=C/c1cccnc1)NCCCCC1CCN(C(=O)c2ccccc2)CC1` + N.N.[Cl][Pt][Cl] [cisplatin] (first compound 0.01 µM, partner dose 1.6 µM), the “cleaved PARP positive nuclei fraction” value was 1040%. With `O=C(Nc1cc(C(F)(F)F)cc(C(F)(F)F)c1)c1cc(Cl)ccc1O` + Cn1cc(C2=C(c3cn(C4CCN(Cc5ccccn5)CC4)c4ccccc34)C(=O)NC2=O)c2ccccc21 [Enzastaurin] (first compound 0.016 µM, partner dose 0.8 µM) the “cleaved PARP positive nuclei fraction” value was 106%. In the case of `C#Cc1cccc(Nc2ncnc3cc(OCCOC)c(OCCOC)cc23)c1` [erlotinib] + C[As](C)SC[C@H](NC(=O)CC[C@H](N)C(=O)O)C(=O)NCC(=O)O [Darinaparsin] (first compound 0.8 µM, partner dose 0.4 µM), the “cleaved PARP positive nuclei fraction” value is reported as 112%. In the case of `Cn1cnc2c(F)c(Nc3ccc(Br)cc3Cl)c(C(=O)NOCCO)cc21` [selumetinib] + Cn1cc(C2=C(c3cn(C4CCN(Cc5ccccn5)CC4)c4ccccc34)C(=O)NC2=O)c2ccccc21 [Enzastaurin] (first compound 0.015 µM, partner dose 0.8 µM), the “cleaved PARP positive nuclei fraction” value is reported as 113%. For `N.N.[Cl][Pt][Cl]` [cisplatin] + C[C@@H](Oc1cc(-c2cnn(C3CCNCC3)c2)cnc1N)c1c(Cl)ccc(F)c1Cl [Crizotinib] (first compound 1.6 µM, partner dose 0.2 µM), the “cleaved PARP positive nuclei fraction” value was 124%.

Source: the supplement of paper PMC4604168 (melanoma cell lines)
